BindingDB's records for doi:10.1016/0024-3205(76)90375-1 (1976)
“And” between values parts separate entries of the source, which are not always exact repeats. Identical values can stand only once.

The chains behind the UniProt entries cited, without tags or fusion partners.
UniProt P32305, whole entry: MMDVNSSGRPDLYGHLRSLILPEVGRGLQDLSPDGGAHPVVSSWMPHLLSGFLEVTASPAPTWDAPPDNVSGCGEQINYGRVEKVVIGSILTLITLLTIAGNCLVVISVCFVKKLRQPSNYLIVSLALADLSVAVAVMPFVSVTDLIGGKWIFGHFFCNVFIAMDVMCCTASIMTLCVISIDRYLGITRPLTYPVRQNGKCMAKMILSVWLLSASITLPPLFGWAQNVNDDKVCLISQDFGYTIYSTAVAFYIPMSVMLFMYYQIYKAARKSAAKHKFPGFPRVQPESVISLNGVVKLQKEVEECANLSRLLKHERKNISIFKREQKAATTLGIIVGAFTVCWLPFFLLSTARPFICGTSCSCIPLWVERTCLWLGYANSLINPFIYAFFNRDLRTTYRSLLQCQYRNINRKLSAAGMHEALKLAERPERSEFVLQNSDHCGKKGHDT

Biological target: 5-hydroxytryptamine receptor 7 (Rattus norvegicus, UniProt P32305)

Row | Compound | Ki
1 | CN1CC[C@]23c4c5ccc(O)c4O[C@H]2[C@@H](O)C=C[C@H]3[C@H]1C5 | > 10 µM
2 | CC(C)NC[C@H](O)COc1cccc2ccccc12 [Propanolol,(+/-)] | 5 µM and 7 µM
